The text below walks through data of paper PMC9764985.

Results are given in words; binding and its absence hold for the method and conditions named. In cells and extracts the contact can be indirect. Binding can be weak; no strength is given. Tags and fused reporters may be left off the sequences shown.

The test addresses Deinococcus radiodurans FtsK (drFtsK), histidine-tagged (Deinococcus radiodurans R1). The test is described as follows: co-IP; E. coli BL21(DE3) pLysS co-expressing histidine-tagged FtsK and a T18-tagged protein; cell extracts at log phase; immunoprecipitated with anti-polyhistidine antibodies, blotted with antibodies against the T18 domain of CyaA.

B1: FtsA of D. radiodurans, T18-tagged (protein, UniProt Q9RWN6 1-517)
chain: MRENSIIVGLDIGTTKITTVIGEVAPDGTIDIIGEGSVPSEGMKRGSVINLERATQAIKQSLHAAERVSGVRAWNVFVSVGGNHTKAMTSHGLAAIRRQQEISPPDVERAIENARAVPLDPSLEILHTIPQEYVVDGQEGIKNPVGMHGVRLEVDVHIVAGSAGPLLNLRRCVQEAGLQIEGFVLHSLASGLATLDHSEQNQTTVVVDMGGGTTDIGVFKRGNLAHSASIPIGGDHVTADLAQILKIPMEEAEKVKRHYGAAIPELADQELTLEITTASGATHAISAYELSRVIRPRVSEIYGLIRDEIDQALGPVELVAQSVVLTGGGAQLPGAVDLARERFRLPTRLGRPRGIHGLSDIVGDPAHACSVGMVLYGITQDGRVPSGLDDGGDPAGYTEYAGRHDQGYPQGGYPAPGYLTAPTGGTHVAPQGTPGSYPGPGYVVSGGQSQGQPYPPMPNTGSHSAGVPSMSGPVIGGQVVGVDPHAQVLVDGQPQRPPSGPKVSLMDRVRSLFRDWF
For the molecule B1, the binding result was “binds”.

B2: FtsZ of D. radiodurans, T18-tagged (protein, UniProt Q9RWN5 1-371)
chain: MQAARIRVIGLGGAGNNAVNRMIESGLEGVEFIAGNTDAQVLAKSHAEVRIQLGDRLTRGLGAGADPKVGEEAAVEDRDRIKEYLDDTDMLFITAGMGGGTGTGSAPVVAEIAREMGILTVAIVTRPFKFEGPKRMRVAEEGMSKLADRVDGMIVVNNEKLLTAVDKKVSFREAFLIADRVLYYGVKGISDVINVEGMINLDFADVRNLLANSGTVLMGIGAGRGDKMAEEAAMSAIHSPLLERGIEGARRILVNVTGGYDLSMTDANEIVEKIREATGFDDPDILFGITPDEAAGDEVRVTVIATGFGDNTYAAPLGGVVSSGRGGYDQGGYGSGLVRPVRGGQGGLGGGSSYDPKDYDIPAFLRNVGGQ
Take B2: the binding entry is listed as “binds”.

B3: GyrA of D. radiodurans (protein, UniProt Q9RT53 1-812)
chain: MTGIQPVDITSEVKTNFINYAMNVIVDRALPDVRDGMKPVQRRIMYAMLQEGLASNVKHAKSASVVGEVMKRYHPHGDSSIYDAMVRLGQWWNMRYTLVDPQGNFGSMDGDMAAAMRYTEARMTKVAEEILADLEKETVDLKPNYDETTTEPTVLPSAVPNLLINGASGIAVGMATNIPPHNLTEISNGLLALIDNPAITLDEMMTHVQGPDFPTGGRIAKVGIREAYATGHAGLKVRGKARIEEGKNGRTQIIISEIPYQLNKTNLLQTISAMYKAGKIPDIGALRDESDRKEPVRIVIELKRSAAGMGTLVLNQLYKYTQLQSSYTVMNLSIVNGEPRVLPLIDTMRYFLDHRRDVVTRRTVYDLRKAKERAHVLEGLLKALDHIDEVISLIRASNTGAEARDGLMARFGLSEIQAQAILDMRLQRLVGLEREKLQGEYDELQKTITRLESILGDEKLLWREIKKEIRDIRDRYGDARRSVITELEEDINKEDLIAVEDMVITMTRAGYVKRTNLTAYREQKRGGRGSSGGKLREEDANTGVFVGSTHDYLLFFTDQGRVFHEKIYDLPEAGRDAKGTHIRNLLPGLRDDENIASVLSVSGFDQPGSFIFATKSGVIKKSLITDYANITSAGLIAINLQPGDELIGVDIQQDGDDVVLATKNGQAMRFEATLVRDTGRATQGVIGIRLREGDEVVSMALVPGNDEEGELLAISECGLGKRTKVSDYPSKGRGGLGVITLDVTDKTGKLVTLAHVAGNEELMVLTEKGTVIRTRVEEVRVTGRNAQGVKVINIGDKDRVIDAFPIRKEDEL
As for B3, the binding entry is “no binding”.

B4: FtsE of D. radiodurans (protein, UniProt Q9RU44 1-576)
chain: MSVPAPGLRWARLQRSRDEKRPHPLFMVARRGWAMLTNEHAATISFALPPAAAPDVGPFPESGVIEFRQVTLEYPATHTLALDNLTVSVTKGEFVYLVGHSGAGKSSFMNLILKRALPTRGEVRVAGQPLSHYRGRRTPLLRRHMGTVFQDNLLLSHLNAYDNVAFALRVIGVPGREWPERVSAALRLVGLEHKKHALPMQLSLGEQQRVAIARAIVSDPPLLLADEPTGNLDPDHSREVLRVLQGVHLRGTTVVVATHARDLVETYRHRTLTLRRGKLVRDDHLGVRPVNYHFRQALLAMRANLTATLSTLTTMTLTLLTLGGVLLLTLNVNRTLERLESQVEVAAYLTPAADEELLLRTARAYPQVSQARLVSSEEVLKEMTRDYPYTREATALTGNPFPDTLRLRVARLEDSRGVAAAVEALPGVESVEYGETYVDSAVRALTAVRAVGYGMVALLLVGTLFNILNAVRVAMFARRDEISVMRLLGATRSFIRMPHLIEGLLVGGVAAVLAVTALAWGYQVLAGRLALFAPIFPVVTDWDVLWPLLIGVGLLGVLVGLVGSLFATRRYLRELE
B4: the binding entry is “no binding”.
